According to PubChem BioAssay AID504834 (National Center for Advancing Translational Sciences (NCATS), 2011):
Out of some 320,000 compounds screened, about 22,000 (6.9%) were called active. The shares of active, inactive and inconclusive entries below differ from those in the screen. The call rests on the fitted dose curve; in most records, active means well fitted inhibition curve with a large enough effect; inconclusive means small, poorly fitted or top-dose-only effect, or another doubt; inactive means no such curve, though single readings can be large or run the other way. Where the call is inconclusive, the potency comes from a doubtful curve fit.

Test: Primary qHTS for delayed death inhibitors of the malarial parasite plastid, 96 hour incubation
Conditions: P. falciparum luciferase reporter growth; series mostly up to 28.7 µM
Summary of the method: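 96 h incubation, 37 C, 5% CO2, of luciferase-reporter P. falciparum-infected RBCs (2% hematocrit, 0.05% parasitemia final) with test compounds; endpoint luminescence.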
On the % scale 0 is the no-effect control and ±100 the full control effect; potency means the concentration at half of the fitted maximal effect.

| SMILES | Potency | activity change, negative = inhibition |
| --- | --- | --- |
| O=C(Cc1c(F)cccc1Cl)N1CCN(S(=O)(=O)c2cccc(F)c2)CC1 | inconclusive: 4.15 µM [inhibitor, partial curve, poor fit] |  |
| O=C(OCCN1CCCCC1)c1cccc(F)c1 | active: 5.86 µM |  |
| CCC(CC)c1nnc(NC(=O)c2cc(-c3ccccc3)nc3ccccc23)s1 | inconclusive: 14.7 µM [inhibitor, single point] |  |
| CCOC(=O)c1c(NC(=O)C(C)OC(=O)C2=COCCO2)sc2c1CCCC2 (stereo unspecified) | inconclusive: 18.5 µM [inhibitor, single point] |  |
| COC(=O)[C@@]12CCCCN1[C@H](c1ccc(-c3ccc(C(C)=O)cc3)cc1)[C@@H]1C(=O)N(C)C(=O)[C@@H]12 | inconclusive: 18.5 µM [inhibitor, single point] |  |
| COc1ccc(NC(=O)CSc2nnc(-c3ccccn3)n2N)cc1Cl |  | inactive: 6.66% [at 5.75 µM] |
| COc1cc2cc(CCOC(=O)c3ccco3)oc(=O)c2cc1OC | inconclusive: 3.29 µM [inhibitor, partial curve] |  |
| Nc1c(C(=O)CSc2nnc(-c3ccccc3)o2)c(=O)[nH]c(=O)n1C1CC1 | inconclusive: 10.4 µM [inhibitor, partial curve] |  |
| O=C1CC(=O)Nc2cc(S(=O)(=O)N3CCOc4ccc(Cl)cc43)ccc2N1 | inconclusive: 14.7 µM [inhibitor, partial curve] |  |
| Cc1ccc(NC(=O)C2CCN(S(=O)(=O)c3ccc4c(c3)C(C)(C)C(=O)N4C)CC2)c(C)c1 | inactive |  |
| COc1ccc2c(c1)N(C)/C(=C/c1cccc[n+]1C)S2 | inconclusive: 18.5 µM [inhibitor, partial curve, poor fit] |  |
| O=C1C=CC(=O)N1c1ccc(Sc2ccc([N+](=O)[O-])cc2)cc1 | inactive |  |
| Cc1c(Cc2ccccc2)c(=O)oc2cc(OC(C)C(=O)NCC3CCC(C(=O)O)CC3)c(Cl)cc12 (stereo unspecified) | active: 10.4 µM |  |
| O=C(NCc1ccc(Cl)cc1)C1CCN(S(=O)(=O)c2ccccc2)CC1 | inactive |  |
| Cc1ccc(NS(=O)(=O)c2ccc(NC(=O)c3cccs3)cc2)cc1 | inconclusive: 0.329 µM [inhibitor, partial curve, poor fit] |  |
| Cc1cc(N)n2nc(C(F)(F)F)nc2n1 | inactive |  |
| O=C(CSc1ccc(-c2ccccn2)nn1)NC1CCCC1 | inconclusive: 10.4 µM [inhibitor, single point] |  |
| CC(C)NS(=O)(=O)c1ccc(OCC(=O)NC2CCCCCC2)cc1 | inconclusive: 18.5 µM [inhibitor, single point] |  |
| CCOc1ccc(S(=O)(=O)N(C)CC(=O)NCc2ccc3c(c2)OCO3)cc1 | inconclusive: 18.5 µM [inhibitor, single point] |  |
| CC(=O)Nc1ccc2c(CSc3nnc(-c4cccnc4)n3-c3ccc(C)cc3C)cc(=O)oc2c1 | active: 7.38 µM |  |
| COc1cccc(CNC(=O)CN(C)S(=O)(=O)c2ccc(Br)s2)c1 | inactive |  |
| O=C(CSc1nc2cc(S(=O)(=O)N3CCOCC3)ccc2o1)Nc1c(F)cccc1F | inactive |  |
| CN(CC(=O)Nc1ccc(Cl)c(C(F)(F)F)c1)C(=O)C1CC(=O)N(C2CCCC2)C1 (stereo unspecified) | inconclusive: 13.1 µM [inhibitor, partial curve, poor fit] |  |

Given bar-delimited: part of the list above.
SMILES | Potency | activity change, negative = inhibition
Cc1ccc(NC(=O)C2CCN(S(=O)(=O)c3ccc4c(c3)C(C)(C)C(=O)N4C)CC2)c(C)c1 | inactive | 
COc1ccc2c(c1)N(C)/C(=C/c1cccc[n+]1C)S2 | inconclusive: 18.5 µM [inhibitor, partial curve, poor fit] | 
O=C1C=CC(=O)N1c1ccc(Sc2ccc([N+](=O)[O-])cc2)cc1 | inactive | 

Continuation:

| SMILES | Potency | activity change, negative = inhibition |
| --- | --- | --- |
| COc1ccc(C2C3=C(CC(C)(C)CC3=O)Oc3ncn(CCO)c(=N)c32)cc1OC (stereo unspecified) | inactive |  |
| Cc1ccc(NC(=O)C2CC(=O)OC23CCOC(C)(C)C3)cc1 (stereo unspecified) | inactive |  |
| O=c1[nH]c2ccccc2c2cn(-c3ccccc3)nc12 | inconclusive: 4.15 µM [inhibitor, partial curve] |  |
| CC(C)c1ccc(C(=O)Nc2nnc(S(=O)(=O)N3CCOCC3)s2)cc1 | inconclusive: 6.57 µM [inhibitor, single point] |  |
| c1ccc2c(c1)nc(NCC1CCCO1)c1nnnn12 (stereo unspecified) | inactive |  |
| COc1ccc(CCNS(=O)(=O)c2cnc(Cl)c(Br)c2)cc1OC | inconclusive: 14.7 µM [inhibitor, single point] |  |
| CCOCCCN(C)C1CCN(S(=O)(=O)c2csc(C(N)=O)c2)CC1 | inconclusive: 18.5 µM [inhibitor, single point] |  |
| O=c1cc(N2CCCCC2)c(-c2ccccc2)nn1Cc1c(Cl)cccc1Cl | active: 10.4 µM |  |
| COc1ccc(/C=C/C(=O)Nc2cc(C)nn2-c2nc3ccccc3[nH]2)cc1 | inconclusive: 9.28 µM [inhibitor, single point] |  |
| COc1cc(/C=C/C(=O)N2c3ccccc3Sc3ccc(C(F)(F)F)cc32)cc(OC)c1OC | inconclusive: 11.7 µM [inhibitor, single point] |  |
| Cc1cnc(C(=O)Nc2nnc(C(C)C)s2)cn1 | inactive |  |
| CCOc1ccccc1NC(=O)CN(C)S(=O)(=O)c1cnc[nH]1 | inactive |  |
| c1ccc(N2CCN(c3nc(-c4ccccn4)nc4ccccc34)CC2)cc1 | active: 2.94 µM |  |
| COc1ccc([N+](=O)[O-])cc1NC(=S)Nc1ccccc1 | inactive |  |
| Cc1c(C(=O)NN2CCN(C)CC2)cccc1[N+](=O)[O-] | inactive |  |
| CCCCn1c(N)c(N(CC(C)C)C(=O)C2CCCO2)c(=O)[nH]c1=O (stereo unspecified) | inactive |  |
| CN(C)C(CNC(=O)c1ccccc1OCc1ccc(Cl)cc1)c1ccco1 (stereo unspecified) | inconclusive: 18.5 µM [inhibitor, partial curve, poor fit] |  |
| CCS(=O)(=O)N1CCN(c2ccc([N+](=O)[O-])c(NCC3CCCO3)c2)CC1 (stereo unspecified) | inconclusive: 3.29 µM [inhibitor, partial curve, poor fit] |  |
| O=C(CN1C(=O)COc2ccc(Cl)cc21)N1CCOCC1 | inconclusive: 18.5 µM [inhibitor, single point] |  |
| CC1CCN(C(=O)C(C)NCc2ccc(F)cc2)CC1 (stereo unspecified) | inconclusive: 0.0657 µM [inhibitor, full curve, poor fit] |  |
| Cc1ccc(NC(=S)NC(=O)/C=C/c2ccco2)c(O)c1 |  | inactive: 44.8% [at 1.15 µM] |
| Cc1ccc(S(=O)(=O)N(C)CC(=O)Nc2nc3ccccc3s2)cc1 | active: 6.57 µM |  |
| CC(C)(C)NC(=O)C(c1ccncc1)N(Cc1cccs1)C(=O)Cn1nnc(-c2ccc(F)cc2)n1 (stereo unspecified) | inconclusive: 11.7 µM [inhibitor, single point] |  |
